According to PubChem BioAssay AID504467 (National Center for Advancing Translational Sciences (NCATS), 2011):
In all, about 330,000 compounds went through this assay and about 7,700 (2.3%) were called active. Inconclusive means that the source gave no clear call. Such entries were picked first, then a sample of the others. Calls come from the whole dose curve; as a rule, active = well fitted inhibition curve with a large enough effect; inconclusive = small, poorly fitted or top-dose-only effect, or effect the other way; inactive = flat fitted curve, though single readings scatter. Potencies beside an inconclusive call are fits to weak or partial responses and may not hold up.

assay: qHTS screen for small molecules that inhibit ELG1-dependent DNA repair in human embryonic kidney (HEK293T) cells expressing luciferase-tagged ELG1; conditions: HEK293T ELG1-luciferase reporter, luminescence, 16 h, DNA damage induced by 5-fluorouridine; series mostly up to 46.1 µM; note: nearly all actives have a fitted effect of over 55% in size
Procedure, shortened: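 5-Fluorouridine DNA damage + compound/DMSO, 2,000 cells/well, 16 h, 37 °C/5% CO2. ONE-Glo, 30 min RT, luminescence. Readout = decrease in reporter signal.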
Potency is the fitted concentration of half-maximal effect.

Compound	Potency
Cc1cccc(OCC(=O)Nc2ncn[nH]2)c1C	inconclusive: 14.6 µM [activator, partial curve]
CCc1ccc2[nH]c(=O)c(C3C(C#N)=C(N)Oc4c3ccc3cccnc43)cc2c1 (stereo not given)	active: 11.6 µM
O=S1(=O)CCOC[C@H](CC2CCCCC2)N1Cc1ccc(Cl)cc1	inactive
COc1ccccc1NS(=O)(=O)c1cccc(NC(=O)c2cncc(Br)c2)c1	inconclusive: 9.2 µM [inhibitor, partial curve]
O=C(Cn1nnc(-c2ccccc2NC(=O)c2ccco2)n1)Nc1ccccc1	inactive
COc1ccc(NC(=O)C2C3C=CC4(O3)C2C(=O)N(CCN2CCCCC2C)C4C(=O)NC2CCCCC2)cc1 (stereo not given)	inconclusive: 16.4 µM [activator, partial curve, poor fit]
CCC(=O)Nc1cccc(NC(=O)c2ccc(Br)cc2)c1	inconclusive: 23.1 µM [activator, single point]
Cc1c(C(=O)NC(=S)Nc2ccc3c4c(cccc24)CC3)cccc1[N+](=O)[O-]	inactive
CC(C)CN(CCNC(=O)CN1N=C(c2ccc(Cl)cc2)CCC1=O)CC(C)C	inactive
CCOc1ccc(C2(C)NC(=O)N(CCN(C)C)C2=O)cc1 (stereo not given)	inconclusive: 5.62 µM [activator, single point]
CN(Cc1ccccc1F)c1ncnc2sccc12	inactive
Cc1ccc(S(=O)(=O)NC(=NC(C)C)c2ccccc2)cc1	inactive
Cc1nn(CCOc2cccc(Br)c2)c(C)c1[N+](=O)[O-]	inconclusive: 5.17 µM [activator, partial curve, poor fit]
CN(CC(=O)Nc1cccc(F)c1)CC(=O)N1CCCCC1	inactive
Cc1nn(-c2ccccc2)c(C)c1NC(=O)COc1ccc(Cl)cc1Cl	active: 20.6 µM
CCCCn1c(SCC(=O)Nc2nnc(C)s2)nc2c1c(=O)n(C)c(=O)n2C	inactive
Cc1ccc(C(=O)NCCNS(=O)(=O)c2ccccc2[N+](=O)[O-])cc1	inactive
O=C(O)/C=C\C(=O)Nc1ccccc1C#Cc1ccccc1	inconclusive: 25.9 µM [activator, partial curve, poor fit]
O=C(Nc1ncccc1O)c1cccc(S(=O)(=O)N2CCN(c3ccc(F)cc3)CC2)c1	inactive
CCc1ccc2c(CN3CCc4ccccc43)cc(=O)oc2c1	inconclusive: 20.6 µM [activator, partial curve, poor fit]
O=C(CN1C(=O)COc2ccccc2C1=O)c1ccc2c(c1)OCCO2	inconclusive: 18.3 µM [activator, partial curve, poor fit]
Cc1cc(NC(=O)c2nn3cccnc3c2Cl)no1	inconclusive: 3.66 µM [activator, partial curve]
O=C1c2ccc([N+](=O)[O-])cc2C(=O)N1c1c[nH]c(=O)[nH]c1=O	inconclusive: 1.03 µM [activator, full curve, poor fit]

Compound	Potency
Cc1ccc(NC(=O)COC(=O)/C=C/c2cccs2)c(C)c1	inactive
Cc1ccc(NC(=O)COc2ccc(CCO)cc2-n2nc3ccccc3n2)cc1C	active: 18.4 µM
CCC(C)OC(=O)C[N+](C)(C)CCOC1CC2CCC1(C)C2(C)C (stereo not given)	inconclusive: 8.2 µM [inhibitor, partial curve]
COc1nc(NCCN2CCOCC2)nc(Nc2ccccc2)n1	inconclusive: 10.3 µM [activator, partial curve, poor fit]
c1ccc2c(c1)Cn1c-2nc2ccccc21	inconclusive: 4.61 µM [activator, partial curve]
COc1cc(C(=O)N/C(=C\c2cn(S(=O)(=O)N(C)C)c3ccccc23)C(=O)N2CCCC2)cc(OC)c1OC	inconclusive: 9.2 µM [inhibitor, partial curve]
COc1cc(/C=C2\SC(=S)N(Nc3ncc(C(F)(F)F)cc3Cl)C2=O)ccc1O	inconclusive: 18.4 µM [activator, partial curve, poor fit]
O=C(NCC(=O)N(c1ccc2c(c1)OCO2)C(C(=O)NC1CCCC1)c1cccs1)c1ccco1 (stereo not given)	inconclusive: 18.4 µM [inhibitor, partial curve, poor fit]
Cc1cccc(C(=O)OCC(=O)NCC2CCCO2)c1O (stereo not given)	inconclusive: 16.4 µM [activator, partial curve]
COc1ccc(-c2cc(C(F)(F)F)nc(NCc3ccco3)n2)cc1OC	inconclusive: 32.6 µM [inhibitor, partial curve, poor fit]
O=C(Nc1ccc(S(=O)(=O)NCc2ccco2)cc1)c1ccc2ccccc2n1	inconclusive: 18.4 µM [inhibitor, single point]
COc1cc(/C=C2/C(=O)N(c3ccc(C(=O)O)cc3)N=C2C)cc(OC)c1O	inactive
c1ccc(CSc2nnc3ccc(-c4ccco4)nn23)nc1	inconclusive: 20.6 µM [activator, partial curve]
COc1ccc(Br)cc1CNC(=O)CCC(=O)N1CCSc2ccccc21	inactive
CN(C(=O)c1cccc(Nc2ccc(-c3ccc4c(c3)OCCO4)nn2)c1)C1CCCCC1	inconclusive: 29.1 µM [inhibitor, single point]
Clc1nc(Cl)nc(NCCC2=CCCCC2)n1	inactive
COc1ccc(NS(=O)(=O)c2ccc(C(=O)N(C)Cc3cccs3)cc2)cc1	inconclusive: 5.17 µM [inhibitor, single point]
COc1ccc(Br)cc1/C=C\C(=O)NCc1cccnc1	inconclusive: 29.1 µM [inhibitor, partial curve, poor fit]
COc1ccc(/C=C/C(=O)c2cc(Cl)ccc2O)c(OC)c1	inconclusive: 29.1 µM [activator, partial curve, poor fit]
COC(=O)c1[nH]c2cc(OC)ccc2c1NC(=O)CCN1CCN(c2ccccc2)CC1	inactive
Cc1oc(-c2ccccc2Cl)nc1CN1CCCC1c1ccc(F)cc1 (stereo not given)	inactive
CCOC(=O)C1CCN(C(=O)C2CCCN(c3ncnc4c3nc3n4CCCCC3)C2)CC1 (stereo not given)	inactive

Looked up above.
Entry for `Cc1oc(-c2ccccc2Cl)nc1CN1CCCC1c1ccc(F)cc1` (stereo not given) under Potency: inactive
Entry for `Cc1ccc(S(=O)(=O)NC(=NC(C)C)c2ccccc2)cc1` under Potency: inactive
Entry for `COc1ccc(-c2cc(C(F)(F)F)nc(NCc3ccco3)n2)cc1OC` under Potency: inconclusive: 32.6 µM [inhibitor, partial curve, poor fit]
Entry for `Cc1ccc(NC(=O)COc2ccc(CCO)cc2-n2nc3ccccc3n2)cc1C` under Potency: active: 18.4 µM
